Laboratory results published in PMC10119292, “Characterization of a fold in TANGO1 evolved from SH3 domains for the export of bulky cargos” (Nature Communications, 2023).

Amino acid sequences for entries named in this document (tags omitted). A change or cut given only in a name is not applied to a line headed by its entry.
UniProt Q5JRA6: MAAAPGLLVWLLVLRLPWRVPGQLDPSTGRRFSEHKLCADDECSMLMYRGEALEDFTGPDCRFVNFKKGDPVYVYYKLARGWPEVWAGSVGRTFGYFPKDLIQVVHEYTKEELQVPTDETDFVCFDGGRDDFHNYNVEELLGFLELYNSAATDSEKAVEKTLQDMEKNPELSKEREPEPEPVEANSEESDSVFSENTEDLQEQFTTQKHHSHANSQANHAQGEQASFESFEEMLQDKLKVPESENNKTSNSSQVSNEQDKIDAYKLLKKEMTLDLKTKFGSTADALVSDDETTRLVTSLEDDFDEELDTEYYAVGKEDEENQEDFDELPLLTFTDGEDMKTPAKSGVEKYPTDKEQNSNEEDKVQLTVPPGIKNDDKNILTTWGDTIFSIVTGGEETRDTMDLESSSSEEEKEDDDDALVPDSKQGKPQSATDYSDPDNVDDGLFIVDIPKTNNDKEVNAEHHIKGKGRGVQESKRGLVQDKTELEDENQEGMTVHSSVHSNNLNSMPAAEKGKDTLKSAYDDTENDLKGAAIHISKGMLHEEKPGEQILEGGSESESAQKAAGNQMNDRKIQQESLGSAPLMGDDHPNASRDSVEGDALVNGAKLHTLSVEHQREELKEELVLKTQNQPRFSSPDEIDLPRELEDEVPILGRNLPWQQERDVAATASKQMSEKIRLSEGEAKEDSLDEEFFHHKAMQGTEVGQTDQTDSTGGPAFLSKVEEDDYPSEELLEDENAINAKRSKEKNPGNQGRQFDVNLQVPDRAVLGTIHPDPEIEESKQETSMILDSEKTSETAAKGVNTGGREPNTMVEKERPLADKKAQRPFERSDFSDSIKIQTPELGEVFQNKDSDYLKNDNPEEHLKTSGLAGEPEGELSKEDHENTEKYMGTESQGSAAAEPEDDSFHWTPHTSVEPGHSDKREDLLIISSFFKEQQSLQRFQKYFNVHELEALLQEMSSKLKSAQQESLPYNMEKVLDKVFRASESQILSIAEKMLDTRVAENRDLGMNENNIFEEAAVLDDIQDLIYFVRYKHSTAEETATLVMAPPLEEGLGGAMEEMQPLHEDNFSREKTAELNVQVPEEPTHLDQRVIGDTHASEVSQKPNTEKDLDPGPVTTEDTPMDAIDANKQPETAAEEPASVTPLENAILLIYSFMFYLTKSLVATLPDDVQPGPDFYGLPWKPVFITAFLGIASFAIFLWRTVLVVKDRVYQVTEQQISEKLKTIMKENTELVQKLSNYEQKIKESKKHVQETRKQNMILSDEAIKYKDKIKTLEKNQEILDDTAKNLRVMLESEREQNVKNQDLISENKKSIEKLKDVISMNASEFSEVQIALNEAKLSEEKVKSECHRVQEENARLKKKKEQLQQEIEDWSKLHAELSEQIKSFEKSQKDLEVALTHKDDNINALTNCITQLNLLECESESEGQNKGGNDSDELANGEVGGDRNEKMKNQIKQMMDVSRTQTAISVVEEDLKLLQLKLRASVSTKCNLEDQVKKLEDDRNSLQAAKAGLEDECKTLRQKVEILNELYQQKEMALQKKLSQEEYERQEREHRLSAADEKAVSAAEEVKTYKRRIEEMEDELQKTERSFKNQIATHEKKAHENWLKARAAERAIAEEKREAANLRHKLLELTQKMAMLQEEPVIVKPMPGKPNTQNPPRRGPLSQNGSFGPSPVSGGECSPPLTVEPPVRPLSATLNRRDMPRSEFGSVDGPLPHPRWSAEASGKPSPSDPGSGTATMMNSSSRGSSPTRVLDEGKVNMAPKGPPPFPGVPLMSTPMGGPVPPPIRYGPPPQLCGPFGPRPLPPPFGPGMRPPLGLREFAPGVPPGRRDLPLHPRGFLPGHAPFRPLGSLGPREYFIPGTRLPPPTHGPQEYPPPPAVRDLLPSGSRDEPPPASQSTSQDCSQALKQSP
UniProt P27986: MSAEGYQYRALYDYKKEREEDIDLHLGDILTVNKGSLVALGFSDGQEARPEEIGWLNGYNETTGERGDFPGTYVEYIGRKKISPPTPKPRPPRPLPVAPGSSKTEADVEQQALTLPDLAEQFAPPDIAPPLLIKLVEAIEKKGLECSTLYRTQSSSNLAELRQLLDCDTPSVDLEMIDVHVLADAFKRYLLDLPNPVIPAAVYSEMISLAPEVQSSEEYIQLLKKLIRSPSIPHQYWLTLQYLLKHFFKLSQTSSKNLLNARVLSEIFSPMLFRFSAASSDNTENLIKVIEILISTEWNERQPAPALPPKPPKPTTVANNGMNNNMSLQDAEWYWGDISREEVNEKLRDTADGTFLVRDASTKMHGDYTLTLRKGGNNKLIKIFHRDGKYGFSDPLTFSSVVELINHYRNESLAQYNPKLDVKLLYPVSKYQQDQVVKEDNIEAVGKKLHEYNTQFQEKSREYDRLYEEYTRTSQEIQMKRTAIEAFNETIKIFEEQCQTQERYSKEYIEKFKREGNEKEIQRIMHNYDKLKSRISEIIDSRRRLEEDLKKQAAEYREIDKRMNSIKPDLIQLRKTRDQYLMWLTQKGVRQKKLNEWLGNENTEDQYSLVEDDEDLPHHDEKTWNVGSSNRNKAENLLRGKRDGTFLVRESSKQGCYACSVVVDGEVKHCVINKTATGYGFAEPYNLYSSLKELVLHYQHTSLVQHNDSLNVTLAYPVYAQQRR

Columns and labels:
[1] = target: human TANGO1 cargo-recognition (MOTH) domain, residues 21-131 (human) (UniProt Q5JRA6); assay: condition: 10-fold molar excess of peptide over 215 µM protein; NMR titration; 1H-15N HSQC of [U-15N]-enriched domain (160-215 µM) without and with 10-fold molar excess of peptide (24-fold for MIA with SOS1 peptide); 298 K; PBS pH 7.4 (hsTANGO1(21-131): 25 mM HEPES pH 7.4, 150 mM NaCl, 1% CHAPS); both purified
[2] = target: human TANGO1 cargo-recognition (MOTH) domain, residues 21-131 (human) (UniProt Q5JRA6); assay: condition: 10-fold molar excess of peptide over 193 µM protein; NMR titration; 1H-15N HSQC of [U-15N]-enriched domain (160-215 µM) without and with 10-fold molar excess of peptide (24-fold for MIA with SOS1 peptide); 298 K; PBS pH 7.4 (hsTANGO1(21-131): 25 mM HEPES pH 7.4, 150 mM NaCl, 1% CHAPS); both purified

binding [1] | binding [2] | Substance
no binding |  | p85α(91-104), class I PPII helix peptide (from UniProt P27986 91-104)
 | no binding | SOS1 (1149-1158), class II PPII helix peptide (from UniProt Q07889 1149-1158)

These are yes or no findings as the source states them, for the method shown.
